In the DeepSol protein solubility set:

Experiment: soluble on expression in E. coli; label from the status in PepcDB or PDB records
For “AHHHHHHGSGIVRAHLRIYGRVQGVGFRWSMQREAKKLGVNGWVRNLPDGSVEAVLEGEEERVEALIGWAHQGPPLARVTRVEVTWEEPKGEKGFRIIG”, the “soluble on expression in E. coli” value was “not soluble”. In the case of “AKQQRKELAGGDFTSPDASASSCGKEVPEDSNNFDGSHVYMHSDYNVYRVRSRYNSDWGETGTEQDEEEDSDENSYYQPDMEYSEIVGLPEEEEIPANRKIKFSSAPIKVFNTYSNEDYDRRNDEVDPVAASAEYELEKRVEKLELFPVELEKDEDGLGISIIGMGVGADAGLEKLGIFVKTVTEGGAAQRDGRIQVNDQIVEVDGISLVGVTQNFAATVLRNTKGNVRFVIGREKPGQVSEVAQLISQTLEQERRQRELLEQHYAQYDADDDETGEYATDEEEDEVGPVLPGSDMAIEVFELPENEDMFSPSELDTSKLSHKFKELQIKHAVTEAEIQKLKTKLQAAENEKVRWELEKTQLQQNIEENKERMLKLESYWIEAQTLCHTVNEHLKETQSQYQALEKKYNKAKKLIKDFQQKELDFIKRQEAERKKIEDLEKAHLVEVQGLQVRIRDLEAEVFRLLKQNGTQVNNNNNIFERRTSLGEVSKGDTMENLDGKQTSCQDGLSQDLNEAVPETERLDSKALKTRAQLSVKNRRQRPSRTRLYDSVSSTDGEDSLERKNFTFNDDFSPSSTSSADLSGLGAEPKTPGLSQSLALSSDESLDMIDDEILDDGQSPKHSQCQNRAVQEWSVQQVSHWLMSLNLEQYVSEFSAQNITGEQLLQLDGNKLKALGMTASQDRAVVKKKLKEMKMSLEKARKAQEKMEKQREKLRRKEQEQMQRKSKKTEKMTSTTAEGAGEQ”, the “soluble on expression in E. coli” value is reported as “soluble”. In the case of “MADFGISAGQFVAVVWDKSSPVEALKGLVDKLQALTGNEGRVSVENIKQLLQSAHKESSFDIILSGLVPGSTTLHSAEILAEIARILRPGGCLFLKEPVETAVDNNSKVKTASKLCSALTLSGLVEVKELQREPLTPEEVQSVREHLGHESDNLLFVQITGKKPNFEVGSSRQLKLSITKKSSPSVKPAVDPAAAKLWTLSANDMEDDSMDLIDSDELLDPEDLKKPDPASLRAASCGEGKKRKACKNCTCGLAEELEKEKSREQMSSQPKSACGNCYLGDAFRCASCPYLGMPAFKPGEKVLLSDSNLHDA”, the “soluble on expression in E. coli” value is reported as “soluble”. For “MAHHHHHHMMPTMHAISSLCLLPTPFPPALVRLLLPPFFGNSKKTHEHTPTDPAARIHHGHTAAVSSLPPTFSAFRRHTTVLILRSRPSRTHIRIDTNERVGSTSASVHSAYPAPLSPLLASQPAPHMSSPAPSTQAFSLKTRQPIPDEDALLTEEDRILKQATKGEDCTTRRRACKNCVCGRAELERKLEAEVLTMPPGGCGNCSKGDAFRCAGCPFLGQPAFDATEDGKVKLNLTDDV”, the “soluble on expression in E. coli” value was “not soluble”. In the case of “MALETVLVAGRPGDEGNGQQLASTAIDIAKPADARVVVGQIFTDEEYETSKTSLGFDDASEVSPEQIAAQHGLFKSIVSQLDSAEVEYELRTATGPHANSIMDLAADVDLIIVGGANRSPTGKAVFGSTTQDVLVQAPCPVVFVRRE”, the “soluble on expression in E. coli” value is reported as “not soluble”. In the case of “MALLLASAINHTAHPAGLRSHPNNESFSRHHLCSSPQNISKRRSNLSFRPRAQTISSESAGIHRLSPWEIPRRDWFPPSFLFGAATSAYQIEGAWNEDGKGPSTWDHFCHNFPEWIVDRSNGDVAADSYHMYAEDVRLLKEMGMDAYRFSISWPRILPKGTLAGGINEKGVEYYNKLIDLLLENGIEPYITIFHWDTPQALVEAYGGFLDERIIKDYTDFAKVCFEKFGKTVKNWLTFNDPETFCSVSYGTGVLAPGRCSPGVSCAVPTGNSLSEPYIVAHNLLRAHAETVDIYNKYHKGADGRIGLALNVFGRVPYTNTFLDQQAQERSMDKCLGWFLEPVVRGDYPFSMRVSARDRVPYFKEKEQEKLVGSYDMIGINYYTSTFSKHIDLSPNNSPVLNTDDAYASQETKGPDGNAIGPPTGNAWINMYPKGLHDILMTMKNKYGNPPMYITENGMGDIDKGDLPKPVALEDHTRLDYIQRHLSVLKQSIDLGADVRGYFAWSLLDNFEWSSGYTERFGIVYVDRENGCERTMKRSARWLQEFNGAAKKVENNKILTPAGQLN”, the “soluble on expression in E. coli” value is reported as “soluble”. With “MAVKVNKEFCSFCGKRQDEVLILIAGPNNTYICDECVEKCYQIVRENKKTSYNFELKDIPKPEQIKKILDEYVIGQERAKKILSVAVYNHYKRIKAKEAGLSLDDVELEKSNILLIGPTGSGKTLLARTLAKILNVPFAIADATSLTEAGYVGEDVENVLVRLLQACDYDVKAAQKGIVYIDEIDKIAKKSGINPSITRDVSGEGVQQALLKIVEGSVVNVPPQGGRKHPHQEFIQVDTTDILFICGGAFVGLEDIIKQRLGKSRVGFEAEIKKVDKEQDLLELVEPDDLIRFGMIPEFIGRFPVIATLRELTEDELVRILVEPKNALVKQYQKLFELEGVKLTFTEKALREIAKEAIRRKTGARGLRAIMEDIMADIMFEVPSLPGVKEVIIDENVVKNKEKPKLIFEQAV” the “soluble on expression in E. coli” value was “soluble”. In the case of “MGHHHHHHSHMASPSLERPEKGAGKSEFRNQKPKPENQDESELLTVPDGWKEPAFSKEDNPRGLLEESSFATLFPKYREAYLKECWPLVQKALNEHHVNATLDLIEGSMTVCTTKKTFDPYIIIRARDLIKLLARSVSFEQAVRILQDDVACDIIKIGSLVRNKERFVKRRQRLIGPKGSTLKALELLTNCYIMVQGNTVSAIGPFSGLKEVRKVVLDTMKNIHPIYNIKSLMIKRELAKDSELRSQSWERFLPQFKHKNVNKRKEPKKKTVKKDIRHSHHHNQKVRSIKNWLVVNTF”, the “soluble on expression in E. coli” value is reported as “not soluble”. With “MGSDKIHHHHHHMIGLRPEDDRVYDVIVVGAGHAGIEAALAAARMGFRVLVLTVNPDTVGWAPCNPAIGGPAKGVVVREIDALGGEMAKTTDETMINVRMLNVSKGPAVRALRAQIDKISYSRTMKRKLETNPNIVLRHGIVERILTEKGRVKGVVDNYGIDYLGKAVIVTTGTFLRGKIFIGRSTFPAGRMGEFPATKLTESLIELGFEVGRFKTGTPARVLKRSINFSVMERQDTSDEPLAFSFFDEPRVLPKDYPCWLTRTNPETHSIIKQYLEFSPLYGTVKLIEGIGPRYCPSIEDKVVKFKDKESHQVFVEPEGRDTEEYYLNGLSTSLPYEAQIKMIRSVKGLENAIVTRPAYAIEYDYIDPRQLYPTLESKLVENLYFAGQVNGTSGYEEAAGQGIIAGINAALKLRGEPPLILKRSEAYIGVLIDDLVTKGVDEPYRLLTSRAEYRLLLRHDNAHLRLAKYGYRVGLIPKWFYEKVLSLERRINEEIERLKKVIVKPSDRVNDLLTSLRTSPLKEPVSFYQLLKRPQLSYSALKFLDPNPIDDPEVVEQVEINVKYEGYIQKMFEEVAVFEKYENYEIPHDLDYDAVPNLSTEARDKLKKIRPRSIGQAMRIPGINPSDISNLIIYLDRKKQ” the “soluble on expression in E. coli” value was “not soluble”. For “MKMDMEDADMTLWTEAEFEEECTYIVNDHPWDSGADGGTSVQAEASLPRNLLFKYATNSEEVIGVMSKEYIPKGTRFGPLIGEIYTNDTVPKNANRKYFWRIYSRGELHHFIDGFNEEKSNWMRYVNPAHSPREQNLAACQNGTNIYFYTIKPIPANQELLVWYCRDFAERLHYPYPGELTMMNLTQTQSSLKQPSTEKNELCPKNVPKREYSVKEILKLDSNPSKGKDLYRSNISPLTSEKDLDDFRRRGSPEMPFYPRVVYPIRAPLPEDFLKASLAYGIERPTYITRSPIPSSTTPSPSARSSPDQSLKSSSPHSSPGNTVSPVGPGSQEHRDSYAYLNASYGTEGLGSYPGYAPLPHLPPAFIPSYNAHYPKFLLPPYGMNCNGLSAVSSMNGINNFGLFPRLCPVYSNLLGGGSLPHPVLNPTSLPSSLPSDGARRLLQPEHPREVLVPAPHSAFSFTGAAASMRDKACSPTSGSPTAGTAATAEHVVQPKATSAAMAAPSSDEAMNLIKNKRNMTGYKTLPYPLKKQNGKIKYECNVCAKTFGQLSNLKVHLRVHSGERPFKCQTCNKGFTQLAHLQKHYLVHTGEKPHECQVCHKRFSSTSNLKTHLRLHSGEKPYQCKVCPAKFTQFVHLKLHKRLHTRERPHKCSQCHKNYIHLCSLKVHLKGNCAAAPAPGLPLEDLTRINEEIEKFDISDNADRLEDVEDDISVISVVEKEILAVARKEKEETGLKVSLQRNMGNGLLSSGCSLYESSDLPLMKLPPSNPLPLVPVKVKQETVEPMDP”, the “soluble on expression in E. coli” value was “soluble”. With “MLESGVLKEGALEKRSDGLLQLWKKKRCVLTEDGLVLHPHKHHHQHQHQQQHDTGCKVKELHFANMKTVDCVERKGKYVYFTVVMSEGREIDFRCLQDEGWNAEITLRMVQYKNRQAILAVKSSRQKQQQLLVVSAQKMVRSAQ” the “soluble on expression in E. coli” value was “not soluble”. With “MPVMGGQQRITLGNLHFQQDPNDPQKWIITNEGPPVAGPSAPARKPNQIQHRQMIPQMNEDGMMNMGNDYGDINGQGLGEAPKRCACTCPNCLQQNNRQGDGKSRIHICHLCNKTYGKTSHLRAHLRGHAGNKPFACDWQHCNKKFTRSDELQRHRRTHTGEKRFACNHCGKKFMRSDHLTKHERTHQSNRINNINQQTLRLS” the “soluble on expression in E. coli” value was “not soluble”. For “MSLVRPSQRREMARWAVANKAMSIRHACQAFEVSQTCYRYQAKASEENVQIADWLVRLTTTYRDWGFGLCFLHLRNVKGFGWNHKRVYRIYRELELNLRIKPKKRLVRERPEPLSVPEAINQVWSMDFMHDQLADGRSFRLFNVLDDFNREGLGIEVDLSLPSARVIRSLDQIIDWRGKPNAIRCDNGPEYISGALLAWAQQRGIRIEHIQPGKPQQNAYVERYNRTVRYAWLATTLFDTIEQVQDKATRWLWTYNHERPNMALGGITPAMKLAMAEGHHHHHH”, the “soluble on expression in E. coli” value was “not soluble”. In the case of “MTTIDTLATCTQQNRDAVYTLLRRYFTANRTLLLQSDLREGLLQTEQDCGQSDMLRAFVFRLQEGIFSSPWAYLALRPEIAKWEFMRIHQEHLIPEKLTISEFLKFKETVVKGEATESVLEVDFGPFNRGFPRLKESRSIGQGVIFLNRKLSSEMFSRIEAGHTSLLHFLGVHAIEGQQLMFSNNSHDIHAVRNQLRQALEMLETLDGTTPWIELAPKMNQLGFAPGWGHNANRVAETMNMLMDILEAPSPSALEEFLACIPMISRLLILSPHGYFGQDNVLGLPDTGGQVVYILDQVRALEKEMHDRLQLQGVQVEPKILIVTRLIPDAGDTTCNQRLEKVSGCTNTWILRVPFRKHNGEIIPHWISRFEIWPHLEIFAGDVEREALAELGGHPDLIIGNYSDGNLVATLLSRRLGVTQCNIAHALEKTKYLHSDIYWQENEDKYHFSCQYTADLLAMNSADFIVTSTYQEIAGTREAEGQYESYQAFSMPDLYRVIHGIDLFDPKFNIVSPGANADIYFPYSDPNRRLHSLIPEIESLIFDDATNLPARGYLQDPLEHHHHHH”, the “soluble on expression in E. coli” value is reported as “not soluble”. In the case of “MVICSGPSMHPTIHDGDLVLAERFSIRNKNVQVGDIVGCVNPQKPKELLCKRIAAKEGDPVTSHLLPSGRVPIGHVFLRGDNGPVSTDSRHFGPVPEALVQIRLSLRIWPPERAGWISDHWFWDKTQKLLKMADRMTQLQDMINEMAGLMTNAIGVLQATAPPCEFGAISQELEDEPNCAIFAAGIAKAAKNIEILIDSFPIEAGNQEAEVEEKMIKNDEKQREKVNELVGLVGDSNRLVGVVQKKLAEISKTQMSSRPSE”, the “soluble on expression in E. coli” value is reported as “not soluble”. With “QEERNQQQDDIEELETKAVGMSNDGRFLKFDIEIGRGSFKTVYKGLDTETTVEVAWCELQDRKLTKSERQRFKEEAEMLKGLQHPNIVRFYDSWESTVKGKKCIVLVTELMTSGTLKTYLKRFKVMKIKVLRSWCRQILKGLQFLHTRTPPIIHRDLKCDNIFITGPTGSVKIGDLGLATLKRASFAKAVIGTPEFMAPEMYEEKYDESVDVYAFGMCMLEMATSEYPYSECQNAAQIYRRVTSGVKPASFDKVAIPEVKEIIEGCIRQNKDERYSIKDLLNHAFFQEET” the “soluble on expression in E. coli” value was “soluble”. For “SEEEQKKKALERSMYVLSELVETEKMYVDDLGQIVEGYMATMAAQGVPESLRGRDRIVFGNIQQIYEWHRDYFLQELQRCLKDPDWLAQLFIKHERRLHMYVVYCQNKPKSEHVVSEFGDSYFEELRQQLGHRLQLNDLLIKPVQRIMKYQLLLKDFLKYYNRAGMDTADLEQAVEVMCFVPKRCNDMMTLGRLRGFEGKLTAQGKLLGQDTFWVTEPEAGGLLSSRGRERRVFLFEQIIIFSEALGGGVRGGTQPGYVYKNSIKVSCLGLEGNLQGDPCRFALTSRGPEGGIQRYVLQAADPAISQAWIKHVAQILESQRDFLNALQSPIEYQRRESQTNSLGRPRGPGVGSP”, the “soluble on expression in E. coli” value was “soluble”.
